Experimental data as given in publication PMC10127071.
These are yes or no findings as the source states them, for the method shown. Binding seen in cells or lysates may run through a third protein. Some entries that bind do so weakly or less than the wild type.

Amino acid sequences for entries named in this document (tags omitted). Residues count along the entry.
UniProt Q9CXW2: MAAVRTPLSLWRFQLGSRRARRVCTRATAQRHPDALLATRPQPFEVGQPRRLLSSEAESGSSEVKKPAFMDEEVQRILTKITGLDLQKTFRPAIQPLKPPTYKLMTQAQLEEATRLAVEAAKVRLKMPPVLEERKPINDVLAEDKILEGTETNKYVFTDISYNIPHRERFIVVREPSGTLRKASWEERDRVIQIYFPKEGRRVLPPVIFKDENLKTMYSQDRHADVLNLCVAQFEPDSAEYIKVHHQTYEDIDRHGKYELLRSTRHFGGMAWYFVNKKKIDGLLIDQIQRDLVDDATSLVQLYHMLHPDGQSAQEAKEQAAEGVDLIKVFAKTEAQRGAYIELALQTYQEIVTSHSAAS
UniProt Q9ER88, residues 18-391: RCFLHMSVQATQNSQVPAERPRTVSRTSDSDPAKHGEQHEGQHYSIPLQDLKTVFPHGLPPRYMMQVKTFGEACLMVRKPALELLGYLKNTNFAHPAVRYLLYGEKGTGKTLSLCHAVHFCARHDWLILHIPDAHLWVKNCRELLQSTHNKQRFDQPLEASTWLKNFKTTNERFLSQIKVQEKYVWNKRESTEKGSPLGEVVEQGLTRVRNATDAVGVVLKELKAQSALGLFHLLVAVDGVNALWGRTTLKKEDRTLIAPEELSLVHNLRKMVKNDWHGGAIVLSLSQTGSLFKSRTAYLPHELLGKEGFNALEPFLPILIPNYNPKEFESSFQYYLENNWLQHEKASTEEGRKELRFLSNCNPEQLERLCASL

Molecular target: T1, Complement component 1, q subcomponent binding protein (mouse (endogenous in GC-1 spg)) (UniProt O35658)
T1 sequence: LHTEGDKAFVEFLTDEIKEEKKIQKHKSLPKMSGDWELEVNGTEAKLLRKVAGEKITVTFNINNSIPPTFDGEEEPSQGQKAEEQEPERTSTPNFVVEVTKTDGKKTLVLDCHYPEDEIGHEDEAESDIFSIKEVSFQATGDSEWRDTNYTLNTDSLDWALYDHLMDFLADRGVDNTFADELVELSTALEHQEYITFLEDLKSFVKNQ
Assay: co-IP; co-immunoprecipitation of C1qbp followed by Western blotting, in wild-type and Rsrc1+/+/circRsrc1-/- GC-1 spg cells

binding, binds:
Mitochondrial ribosomal protein L3 (from UniProt Q99N95 41-348)
Mitochondrial ribosomal protein S22 (from UniProt Q9CXW2 1-359)
Mitochondrial ribosomal protein S29 (from UniProt Q9ER88 18-391)
